These results are taken from paper PMC5058708.

Protein sequences, listed by entry. Tags and fused reporters are not part of them.
UniProt P18266: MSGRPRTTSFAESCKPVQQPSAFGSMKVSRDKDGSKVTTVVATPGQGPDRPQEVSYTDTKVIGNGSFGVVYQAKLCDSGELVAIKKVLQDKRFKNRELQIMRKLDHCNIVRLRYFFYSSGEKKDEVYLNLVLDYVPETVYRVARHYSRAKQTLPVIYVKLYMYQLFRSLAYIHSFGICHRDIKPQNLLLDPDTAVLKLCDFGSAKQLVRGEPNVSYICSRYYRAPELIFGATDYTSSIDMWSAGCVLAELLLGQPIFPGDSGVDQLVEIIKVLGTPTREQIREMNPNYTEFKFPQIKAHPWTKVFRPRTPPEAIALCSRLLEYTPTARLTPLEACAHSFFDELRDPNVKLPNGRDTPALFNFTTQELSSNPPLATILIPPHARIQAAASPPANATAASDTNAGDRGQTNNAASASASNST
UniProt Q07936: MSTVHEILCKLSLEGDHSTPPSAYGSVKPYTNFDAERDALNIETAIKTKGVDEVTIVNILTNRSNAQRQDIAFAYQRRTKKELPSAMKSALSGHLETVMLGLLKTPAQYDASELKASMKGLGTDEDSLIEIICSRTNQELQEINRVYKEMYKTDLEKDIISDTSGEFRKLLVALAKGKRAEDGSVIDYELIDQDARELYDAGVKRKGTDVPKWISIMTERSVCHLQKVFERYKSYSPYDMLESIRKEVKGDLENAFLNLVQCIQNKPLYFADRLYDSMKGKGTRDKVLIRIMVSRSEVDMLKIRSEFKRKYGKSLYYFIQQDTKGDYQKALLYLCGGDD
UniProt P31977: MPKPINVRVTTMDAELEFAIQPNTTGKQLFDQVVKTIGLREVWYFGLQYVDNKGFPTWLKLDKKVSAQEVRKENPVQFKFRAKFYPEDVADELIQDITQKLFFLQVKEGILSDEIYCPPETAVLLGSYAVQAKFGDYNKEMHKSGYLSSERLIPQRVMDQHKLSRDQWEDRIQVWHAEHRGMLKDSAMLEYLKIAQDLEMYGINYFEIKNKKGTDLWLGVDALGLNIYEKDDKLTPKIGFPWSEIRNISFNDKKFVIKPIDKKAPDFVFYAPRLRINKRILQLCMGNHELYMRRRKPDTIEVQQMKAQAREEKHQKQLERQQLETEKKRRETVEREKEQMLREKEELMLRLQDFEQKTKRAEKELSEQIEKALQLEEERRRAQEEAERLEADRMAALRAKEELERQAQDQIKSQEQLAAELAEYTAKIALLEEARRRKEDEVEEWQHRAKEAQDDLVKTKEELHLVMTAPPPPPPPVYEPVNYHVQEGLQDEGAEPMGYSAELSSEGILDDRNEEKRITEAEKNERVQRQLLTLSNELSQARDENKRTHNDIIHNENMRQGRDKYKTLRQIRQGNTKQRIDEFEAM
UniProt P61589: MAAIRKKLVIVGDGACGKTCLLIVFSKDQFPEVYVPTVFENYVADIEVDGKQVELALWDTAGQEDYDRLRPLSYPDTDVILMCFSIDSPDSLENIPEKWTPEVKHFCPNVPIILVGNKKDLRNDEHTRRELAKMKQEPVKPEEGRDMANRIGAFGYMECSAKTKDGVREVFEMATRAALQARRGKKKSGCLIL
UniProt M0R702: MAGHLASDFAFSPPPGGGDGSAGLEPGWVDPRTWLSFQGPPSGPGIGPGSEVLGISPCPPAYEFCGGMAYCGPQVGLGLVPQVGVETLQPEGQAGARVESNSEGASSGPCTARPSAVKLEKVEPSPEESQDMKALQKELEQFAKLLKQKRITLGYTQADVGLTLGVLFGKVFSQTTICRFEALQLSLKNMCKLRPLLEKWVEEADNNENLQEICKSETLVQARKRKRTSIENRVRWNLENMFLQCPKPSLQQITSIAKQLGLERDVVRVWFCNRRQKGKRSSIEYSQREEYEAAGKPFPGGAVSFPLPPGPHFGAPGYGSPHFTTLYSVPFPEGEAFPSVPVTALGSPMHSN
UniProt O54857: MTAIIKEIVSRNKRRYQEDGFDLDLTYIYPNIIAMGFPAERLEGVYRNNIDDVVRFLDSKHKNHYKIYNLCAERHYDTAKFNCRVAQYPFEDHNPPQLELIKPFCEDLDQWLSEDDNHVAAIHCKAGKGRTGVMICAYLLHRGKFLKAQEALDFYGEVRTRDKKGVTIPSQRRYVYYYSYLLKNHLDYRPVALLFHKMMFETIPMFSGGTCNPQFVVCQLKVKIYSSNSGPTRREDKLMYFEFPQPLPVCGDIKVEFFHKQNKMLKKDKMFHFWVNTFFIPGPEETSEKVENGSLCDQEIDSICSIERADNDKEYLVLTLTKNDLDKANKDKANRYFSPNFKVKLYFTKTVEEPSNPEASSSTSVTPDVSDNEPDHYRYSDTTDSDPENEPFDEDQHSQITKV

In assay [1] the target is T1, claudin7 (rat (endogenous in ASML)) (UniProt Q9Z1L1).
T1 sequence (chain, palmitoylated (palmitoylation is prevented by mutating AA184 and AA186)): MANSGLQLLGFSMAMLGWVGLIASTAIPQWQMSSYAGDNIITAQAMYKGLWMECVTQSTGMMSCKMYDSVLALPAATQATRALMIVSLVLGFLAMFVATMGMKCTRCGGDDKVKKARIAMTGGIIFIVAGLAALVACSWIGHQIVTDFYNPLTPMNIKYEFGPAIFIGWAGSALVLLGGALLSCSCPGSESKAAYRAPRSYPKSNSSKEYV
The assay can be described thus: co-IP; lysates of wt, kd and rescue ASML clones; HEPES buffer, 1% Lubrol, 30 min at 4°C; antibody 1 h at 4°C, ProteinG-Sepharose 1 h; SDS-PAGE and Western blot. A general note: In western blotting, separated proteins are transferred to a membrane and probed.

Assay [2] deals with GSK3β (rat (endogenous in ASML)) (UniProt P18266). Described as above.
The target of assay [3] is T2, EpCAM (rat (endogenous in ASML)) (UniProt O55159).
T2 sequence: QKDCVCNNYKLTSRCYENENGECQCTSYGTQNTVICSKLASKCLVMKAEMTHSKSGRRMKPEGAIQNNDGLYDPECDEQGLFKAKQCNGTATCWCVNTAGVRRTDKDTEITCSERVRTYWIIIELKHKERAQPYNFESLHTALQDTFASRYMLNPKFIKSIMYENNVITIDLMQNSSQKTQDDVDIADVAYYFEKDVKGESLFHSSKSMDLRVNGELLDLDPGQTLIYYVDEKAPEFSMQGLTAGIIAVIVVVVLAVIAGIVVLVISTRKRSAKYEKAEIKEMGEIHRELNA
The assay can be described thus: co-IP; lysates of ASML^wt and -cld7^mPalm exosomes (1% Lubrol) precipitated with anti-cld7, -EpC, -CD44v6, -Tspan8 or -α6β4; Western blot.

The target of assay [4] is AnnII (rat (endogenous in ASML)) (UniProt Q07936). The assay can be described thus: co-IP; lysates of wt, kd and rescue ASML clones; HEPES buffer, 1% Lubrol, 30 min at 4°C; antibody 1 h at 4°C, ProteinG-Sepharose 1 h; SDS-PAGE and Western blot.
Assay [5] concerns the target T2, EpCAM (rat (endogenous in ASML)). The description is as above.
The target in assay [6] is T3, Lamp1 (rat (endogenous in ASML)) (UniProt P14562).
T3 sequence: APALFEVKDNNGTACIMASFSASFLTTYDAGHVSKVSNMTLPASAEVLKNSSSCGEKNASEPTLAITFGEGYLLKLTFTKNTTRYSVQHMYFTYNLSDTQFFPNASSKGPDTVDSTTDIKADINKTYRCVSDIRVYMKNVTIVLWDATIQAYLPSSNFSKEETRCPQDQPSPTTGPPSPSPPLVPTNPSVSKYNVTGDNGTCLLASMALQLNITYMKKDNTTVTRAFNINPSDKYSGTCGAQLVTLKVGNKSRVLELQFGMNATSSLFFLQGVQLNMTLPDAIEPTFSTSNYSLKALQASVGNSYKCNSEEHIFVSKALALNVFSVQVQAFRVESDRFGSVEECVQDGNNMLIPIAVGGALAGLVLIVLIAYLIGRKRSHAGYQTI
The description is as above.

For assay [7], the target named is ezrin (rat (endogenous in ASML)) (UniProt P31977). Described as above.

These are yes or no findings as the source states them, for the method shown. Binding seen in cells or lysates may run through a third protein. Some binding calls cover weakened binding; strength is not graded here.

With RhoA (from UniProt P61589 1-193), in assay [1], the binding result is recorded as “binds”.

For the molecule Oct3/4 (from UniProt M0R702 1-352), in assay [1], the binding result was “no binding”.

Regarding “Pten (from UniProt O54857 1-403) (enzyme)”, the binding result in assay [2] is listed as “binds weakly”.

B1: claudin7 (protein, UniProt Q9Z1L1 1-211)
chain: T1 sequence (chain, palmitoylated (palmitoylation is prevented by mutating AA184 and AA186))
modifications: palmitoylated (palmitoylation is prevented by mutating AA184 and AA186)
As for B1, the binding result in assay [3], in assay [4], in assay [5], in assay [6] and in assay [7] was “binds” each time.
